Reference: patent US20200009262A1, “TARGETED CONSTRUCTS AND FORMULATIONS THEREOF” (TARVEDA THERAPEUTICS, INC., priority 2016, published 2020)
pIC50: −log10 of the molar value. Not every detail of the peptide structures is certain; ends, links or a residue may be inferred.

Key:
[1] = tested on: SW48 xenograft model (human colorectal cancer); assay: Efficacy study in SW48 xenograft model, tumor growth inhibition; type: in vivo; conditions: for TGI %: irinotecan 50 mg/kg once/week for two weeks
Protocol: Efficacy of Compound 3 was tested in an SW48 xenograft model (human colorectal cancer). Efficacies of the other compounds in Table 2 were also tested. All conjugates were dosed twice/week for two weeks.

SW48 cells = assay: IC50 in SW48 cells; type: cell-based, human; conditions: IC50s are for Compound 3′ (T-1544) and Compound 8′ (T-1535), products of acid-mediated cleavage of each conjugate from albumin
[2] = Day 4, conjugates twice/week for two weeks (3, 4, 7, 8: 2.0 mg/kg; 5, 6: 0.025 mg/kg)
[3] = Day 8, conjugates twice/week for two weeks (3, 4, 7, 8: 2.0 mg/kg; 5, 6: 0.025 mg/kg)
[4] = Day 10, conjugates 2.0 mg/kg twice/week for two weeks
[5] = Day 14, conjugates 2.0 mg/kg twice/week for two weeks
[6] = Day 17, conjugates 2.0 mg/kg twice/week for two weeks
[7] = Day 21, conjugates 2.0 mg/kg twice/week for two weeks

Structure (SMILES)	TGI % [1, 2]	TGI % [1, 3]	TGI % [1, 4]	TGI % [1, 5]	TGI % [1, 6]	TGI % [1, 7]	TGI % compared with the other tested compounds ([1]; SW48 xenograft, 2.0 mg/kg twice/week for two weeks)	pIC50 (SW48 cells)
COc1cc2cc(c1Cl)N(C)C(=O)C[C@H](OC(=O)[C@H](C)N(C)C(=O)CCSC1CC(=O)N(CCCNC(=O)CNC(=O)[C@H](CC(C)C)NC(=O)[C@H](Cc3ccccc3)NC(=O)CNC(=O)CCC(=O)NCCCC[C@H](NC(=O)c3ccc(/C(C)=N/NC(=O)CCCCCN4C(=O)C=CC4=O)cc3)C(=O)N3CCC[C@H]3C(=O)N(C)[C@@H](CCCNC(=N)N)C(=O)N[C@@H](CCCNC(=N)N)C(=O)N3CCC[C@H]3C(=O)N[C@@H](Cc3ccc(O)cc3)C(=O)N[C@H](C(=O)N[C@@H](CC(C)C)C(=O)O)C(C)(C)C)C1=O)[C@]1(C)O[C@H]1[C@H](C)[C@@H]1C[C@@](O)(NC(=O)O1)[C@H](OC)/C=C/C=C(\C)C2 (some centres unmarked) [Compound 3]	26.9%	46.8%	51%	63.5%	64%	58.2%	greater TGI % than any other compound	8.03
COc1cc2cc(c1Cl)N(C)C(=O)C[C@H](OC(=O)[C@H](C)N(C)C(=O)CCSC1CC(=O)N(CCCNC(=O)CNC(=O)[C@H](CC(C)C)NC(=O)[C@H](Cc3ccccc3)NC(=O)CNC(=O)CCC(=O)NCCCC[C@H](NC(C)=O)C(=O)N3CCC[C@H]3C(=O)N(C)[C@@H](CCCNC(=N)N)C(=O)N[C@@H](CCCNC(=N)N)C(=O)N3CCC[C@H]3C(=O)N[C@@H](Cc3ccc(O)cc3)C(=O)N[C@H](C(=O)N[C@@H](CC(C)C)C(=O)O)C(C)(C)C)C1=O)[C@]1(C)O[C@H]1[C@H](C)[C@@H]1C[C@@](O)(NC(=O)O1)[C@H](OC)/C=C/C=C(\C)C2 (some centres unmarked) [Compound 4]	1.8%	−12.5%	−16.5%	−13.2%	−23.7%	−7.3%		
